Data: patent US7462598B2 (priority 2002, dated 2008)
For part of these data: Some peptides are written in HELM: one residue between dots, names in brackets for other building blocks, links after the first $. Bridge positions count the residues as written; N and C are the ends. Peptide text beside a SMILES is read from it.

What was measured:
[1] = system: human erythrocytes; experiment: Hemolysis assay; type: cell-based; conditions: for Selective index (H/M): ratio of H (3% hemolysis) over lowest MMC (M)
Procedure: For the hemolysis assay, the hemolytic activity of each peptide was determined by the method of Tam et al. (Tam et al., Eur. J. Biochem. 267:3289-3300 (2000)). Blood was obtained from a healthy donor in accordance to a protocol approved by the Institutional Review Board. Normal human serum was prepared from the same individual and stored at −20° C. Red blood cells (RBC) were prepared from blood collected in EDTA. RBC were harvested at 234×g for 10 min, 22° C., washed four times with 10 mM sodium phosphate, 150 mM NaCl, pH 7.4 (PBS), containing 4 mM EDTA and resuspended in PBS without EDTA. Peptides dissolved in 10 μl 0.01% HOAc were diluted with PBS to final concentrations of 0.3-100 μg/ml. RBC were added to a 2% final density in 100 μl. Incubation mixtures were also prepared with 10% serum. After 1 h incubation at 37° C., the cell suspensions were centrifuged at 234×g for 10 min, 22° C. Fifty-μl samples of the supernatants were removed, and the absorbance at 405 nm (A) was measured. Hemolytic activity of each peptide was calculated relative to lysis by 1% NP-40 using the following formula:
A selectivity index (SI=H/M) was calculated as a ratio of a peptide concentration (μg/ml) that causes 3% hemolysis (H) obtained from a dose-dependent hemolysis plot over 0.3 to 3 μg/ml of each peptide in PBS and the lowest MMC value (M) for any of the three test microorganisms (see Example II; Table 2).

[2] = general procedure: Fmoc solid-phase peptide synthesis; Fmoc-Arg(Pbf)-PEG-PS (peptide acids); Fmoc-PAL-PEG-PS (peptide amides); HATU/DIEA; Cys as pentafluorophenyl ester; conditions: for cyclisation yield: cyclisation step; for final HPLC purity: whole synthesis, analytical RP-HPLC, scale of the general procedure 0.1 mmol

CC(C)C[C@@H]1NC(=O)[C@@H]2CSSC[C@H](NC(=O)[C@H](CCCNC(=N)N)NC(=O)[C@@H]3CSSC[C@H](NC1=O)C(=O)N[C@@H](CCCNC(=N)N)C(=O)N[C@@H](CCCNC(=N)N)C(=O)NCC(=O)N[C@@H](C(C)C)C(=O)N3)C(=O)N[C@@H](CC(C)C)C(=O)N[C@H]1CSSC[C@H](NC(=O)[C@H](C(C)C)NC(=O)CNC(=O)[C@H](CCCNC(=N)N)NC(=O)[C@H](CCCNC(=N)N)NC1=O)C(=O)N[C@@H](CCCNC(=N)N)C(=O)N2 [RTD-3] (cyclo(CLCRRGVCRCLCRRGVCR); disulfide 1-10, 3-8, 12-17)
Selective index (H/M) [1]: 6.3

CC(C)C[C@H](NC(=O)[C@H](CCCNC(=N)N)NC(=O)CNC(=O)CNC(=O)[C@@H](N)CCCNC(=N)N)C(=O)N[C@H]1CSSC[C@@H](C(=O)N[C@H](C(=O)NCC(=O)N[C@@H](CCCNC(=N)N)C(N)=O)C(C)C)NC(=O)[C@H](C(C)C)NC(=O)[C@@H]2CSSC[C@H](NC(=O)[C@H](Cc3ccc(O)cc3)NC1=O)C(=O)N[C@@H](CCCNC(=N)N)C(=O)N[C@@H](CCCNC(=N)N)C(=O)N[C@@H](CCCNC(=N)N)C(=O)N[C@@H](Cc1ccccc1)C(=O)N2 [PG-1, reference compound]
fold less selective than RTD-2 ([1]; from selectivity indices): 7 fold | selectivity relative to RTD-1 and 3 ([1]; from selectivity indices): three-fold less selective

CC(C)C[C@H](NC(=O)[C@H](CCCNC(=N)N)NC(=O)CNC(=O)CN)C(=O)N[C@H]1CSSC[C@@H](C(=O)N[C@H](C(=O)NCC(=O)N[C@@H](CCCNC(=N)N)C(=O)N[C@@H](CCCNC(=N)N)C(=O)O)C(C)C)NC(=O)[C@H](C(C)C)NC(=O)[C@@H]2CSSC[C@H](NC(=O)[C@H](Cc3ccc(O)cc3)NC1=O)C(=O)N[C@@H](CCCNC(=N)N)C(=O)N[C@@H](CCCNC(=N)N)C(=O)N[C@@H](CCCNC(=N)N)C(=O)N[C@@H](Cc1ccccc1)C(=O)N2 [4:4 PG-1-OH] (H-GGRLCYCRRRFCVCVGRR-OH; disulfide 5-14, 7-12; N-terminus assumed)
percent lower selectivity index than the amidated analogs (4:4 PG-1-NH and PG-1) ([1]; from selectivity indices): about 50%

PEPTIDE1{G.F.C.R.C.I.C.T.R.G.F.C.R.C.I.C.T.R}$PEPTIDE1,PEPTIDE1,1:R1-18:R2|PEPTIDE1,PEPTIDE1,3:R3-16:R3|PEPTIDE1,PEPTIDE1,5:R3-14:R3|PEPTIDE1,PEPTIDE1,7:R3-12:R3$$$V2.0
cyclisation yield [2]: 60% | final HPLC purity [2]: more than 99%

CC[C@H](C)[C@@H]1NC(=O)[C@@H]2CSSC[C@H](NC(=O)[C@H](CCCNC(=N)N)NC(=O)[C@@H]3CSSC[C@H](NC1=O)C(=O)N[C@@H]([C@@H](C)O)C(=O)N[C@@H](CCCNC(=N)N)C(=O)NCC(=O)N[C@@H](Cc1ccccc1)C(=O)N3)C(=O)N[C@@H]([C@@H](C)CC)C(=O)N[C@H]1CSSC[C@H](NC(=O)[C@H](Cc3ccccc3)NC(=O)CNC(=O)[C@H](CCCNC(=N)N)NC(=O)[C@H]([C@@H](C)O)NC1=O)C(=O)N[C@@H](CCCNC(=N)N)C(=O)N2 [RTD-2] (cyclo(CICTRGFCRCICTRGFCR); disulfide 1-10, 3-8, 12-17)
fold more selective than RTD-1 and RTD-3 ([1]; from selectivity indices): 2- to 2.5 fold | Selective index (H/M) [1]: 14.3

CC(C)C[C@H](NC(=O)[C@H](CCCNC(=N)N)NC(=O)CNC(=O)CNC(=O)[C@@H](N)CCCNC(=N)N)C(=O)N[C@H]1CSSC[C@@H](C(=O)N[C@H](C(=O)NCC(=O)N[C@@H](CCCNC(=N)N)C(=O)O)C(C)C)NC(=O)[C@H](C(C)C)NC(=O)[C@@H]2CSSC[C@H](NC(=O)[C@H](Cc3ccc(O)cc3)NC1=O)C(=O)N[C@@H](CCCNC(=N)N)C(=O)N[C@@H](CCCNC(=N)N)C(=O)N[C@@H](CCCNC(=N)N)C(=O)N[C@@H](Cc1ccccc1)C(=O)N2 [PG-1-OH] (H-RGGRLCYCRRRFCVCVGR-OH; disulfide 6-15, 8-13; N-terminus assumed)
percent lower selectivity index than the amidated analogs (4:4 PG-1-NH and PG-1) ([1]; from selectivity indices): about 50%

CC(C)C[C@@H]1NC(=O)[C@H](CCCNC(=N)N)NC(=O)CNC(=O)CNC(=O)[C@H](CCCNC(=N)N)NC(=O)[C@H](CCCNC(=N)N)NC(=O)CNC(=O)[C@H](C(C)C)NC(=O)[C@@H]2CSSC[C@H](NC1=O)C(=O)N[C@@H](Cc1ccc(O)cc1)C(=O)N[C@H]1CSSC[C@H](NC(=O)[C@H](Cc3ccccc3)NC(=O)[C@H](CCCNC(=N)N)NC(=O)[C@H](CCCNC(=N)N)NC(=O)[C@H](CCCNC(=N)N)NC1=O)C(=O)N[C@@H](C(C)C)C(=O)N2 [cPG-1] (cyclo(GGRLCYCRRRFCVCVGRR); disulfide 5-14, 7-12)
percent lower selectivity index than the amidated analogs (4:4 PG-1-NH and PG-1) ([1]; from selectivity indices): about 50%

PEPTIDE1{G.V.C.R.C.L.C.R.R.G.V.C.R.C.L.C.R.R}$PEPTIDE1,PEPTIDE1,1:R1-18:R2|PEPTIDE1,PEPTIDE1,3:R3-16:R3|PEPTIDE1,PEPTIDE1,5:R3-14:R3|PEPTIDE1,PEPTIDE1,7:R3-12:R3$$$V2.0
cyclisation yield [2]: 90% | final HPLC purity [2]: more than 99%
